No constants are given. Whether binding was seen depends on the method and setting. In cells and extracts the contact can be indirect. A result given as binding can be weak or reduced; the word gives no strength. Sequences can lack the tags named with a protein.
Biological target: T1, myc-PKCλ (UniProt Q62074)
T1 sequence: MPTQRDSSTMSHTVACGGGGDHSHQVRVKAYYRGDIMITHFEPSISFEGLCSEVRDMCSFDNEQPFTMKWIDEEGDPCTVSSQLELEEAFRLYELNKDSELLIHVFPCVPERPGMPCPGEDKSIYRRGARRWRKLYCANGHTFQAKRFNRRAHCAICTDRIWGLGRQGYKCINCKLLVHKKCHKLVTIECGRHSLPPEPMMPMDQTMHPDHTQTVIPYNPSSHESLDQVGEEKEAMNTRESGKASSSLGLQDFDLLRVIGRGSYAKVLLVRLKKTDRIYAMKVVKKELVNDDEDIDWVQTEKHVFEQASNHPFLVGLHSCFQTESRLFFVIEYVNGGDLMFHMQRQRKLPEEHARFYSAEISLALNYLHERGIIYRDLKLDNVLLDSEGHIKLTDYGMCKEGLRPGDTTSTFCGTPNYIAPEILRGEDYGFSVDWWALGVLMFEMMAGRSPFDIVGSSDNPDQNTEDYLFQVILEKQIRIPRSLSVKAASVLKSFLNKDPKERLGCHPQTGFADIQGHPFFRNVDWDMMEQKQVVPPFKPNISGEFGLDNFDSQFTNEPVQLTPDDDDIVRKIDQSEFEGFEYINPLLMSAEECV
Test: co-IP; HEK293T cells co-transfected with Girdin-V5 and myc-tagged proteins; lysed in RIPA buffer; immunoprecipitated with anti-myc antibody, blotted with anti-V5; in Figure 8B also with a co-expressed dominant-negative PKC mutant (K273E)

binding: binds
Substance: Girdin-V5 (human)

Source: PMC3344933
